Measured values from US20240199692A1 (priority 2019, published 2024).

Key:
[1] = general procedure: Fmoc solid-phase peptide synthesis; Fmoc-Rink Amide AM resin; COMU/Oxyma/DIPEA; conditions: whole synthesis
[2] = general procedure: Fmoc solid-phase peptide synthesis; Fmoc-NH-SAL-PEG resin; COMU/Oxyma/DIPEA; conditions: whole synthesis

## N-[(2S)-3-amino-1-({(2S)-1-[{(2S,3S)-1-[(2S)-2-(2-amino-2-oxoethyl)pyrrolidin-1-yl]-3-methyl-1-oxopentan-2-yl}(methyl)amino]-4-methyl-1-oxopentan-2-yl}amino)-1-oxopropan-2-yl]-N^2-[4-(4-methoxybenzamido)benzene-1-sulfonyl]-D-asparagine
[1]; scale 0.10 mmol
  isolated mass: 12 mg

## (2S,5S,32R)-2-{[(2S)-1-({(2S)-1-[{(2S,3S)-1-[(2S)-2-(2-amino-2-oxoethyl)pyrrolidin-1-yl]-3-methyl-1-oxopentan-2-yl}(methyl)amino]-4-methyl-1-oxopentan-2-yl}amino)-1-oxopropan-2-yl]carbamoyl}-4,11,20,29,34-pentaoxo-5-{4-[(4-phenoxybenzene-1-sulfonyl)amino]butanamido}-13,16,22,25-tetraoxa-3,10,19,28,33-pentaazaoctatetracontane-1,32,48-tricarboxylic acid
[1]; scale 0.12 mmol
  isolated mass: 29 mg

## N^2-(4′-acetyl[1,1′-biphenyl]-4-sulfonyl)-N-[(2S)-1-({(2S)-1-[{(2S,3S)-1-[(2S)-2-(2-amino-2-oxoethyl)pyrrolidin-1-yl]-3-methyl-1-oxopentan-2-yl}(methyl)amino]-4-methyl-1-oxopentan-2-yl}amino)-1-oxopropan-2-yl]-D-asparagine
[2]; scale 0.10 mmol
  isolated mass: 8 mg

## N^2-(4-{4-[4-(methylcarbamoyl)phenoxy]benzamido}butanoyl)-L-asparaginyl-L-α-aspartyl-L-alanyl-L-leucyl-L-methionyl-L-prolinamide
[2]; scale 0.10 mmol
  isolated mass: 30 mg

## N-[4-(4-carbamoylbenzamido)benzene-1-sulfonyl]-D-γ-glutamyl-(4S)-4-amino-L-prolyl-L-1 eucyl-N-(5-amino-5-oxopentyl)-N^2-methyl-L-α-glutamine
[1]; scale 0.10 mmol
  isolated mass: 46 mg

## 5-Br-thiophene-2-SO2-β-Ala-Asn-Asp-Ala-Leu-(N-Me)Met-Pro-NH2
[2]; scale 0.10 mmol
  isolated mass: 27 mg

## N^2-[4-(4-phenoxybenzamido)butanoyl]-L-asparaginyl-N-[(2S)-4-amino-1-({(2S)-1-[{(2S,3S)-1-[(2S)-2-(2-amino-2-oxoethyl)pyrrolidin-1-yl]-3-methyl-1-oxopentan-2-yl}(methyl)amino]-4-methyl-1-oxopentan-2-yl}amino)-1-oxobutan-2-yl]-L-α-asparagine
[2]; scale 0.12 mmol
  isolated mass: 14 mg

## [(2S,5S,8S,20S)-8-[{(2S,3S)-1-[(2S)-2-(2-amino-2-oxoethyl)pyrrolidin-1-yl]-3-methyl-1-oxo pentan-2-yl}(methyl)carbamoyl]-5-methyl-3,6,14,17,21-pentaoxo-20-{4-[(4-phenoxybenzene-1-sulfonyl)amino]butanamido}-1,4,7,13,16-pentaazacyclohenicosan-2-yl]acetic acid
[2]; scale 0.12 mmol
  isolated mass: 10 mg
